Measurements taken from doi:10.1101/2023.11.29.569073.
These are yes or no findings as the source states them, for the method shown. Binding seen in cells or lysates may run through a third protein. Here binding means that the protein was enriched with, or labelled near, the bait; the list need not be complete. Tags and fused reporters may be left off the sequences shown.

By UniProt entry, the sequences of proteins in these tests, tags left out.
UniProt Q9FIJ0: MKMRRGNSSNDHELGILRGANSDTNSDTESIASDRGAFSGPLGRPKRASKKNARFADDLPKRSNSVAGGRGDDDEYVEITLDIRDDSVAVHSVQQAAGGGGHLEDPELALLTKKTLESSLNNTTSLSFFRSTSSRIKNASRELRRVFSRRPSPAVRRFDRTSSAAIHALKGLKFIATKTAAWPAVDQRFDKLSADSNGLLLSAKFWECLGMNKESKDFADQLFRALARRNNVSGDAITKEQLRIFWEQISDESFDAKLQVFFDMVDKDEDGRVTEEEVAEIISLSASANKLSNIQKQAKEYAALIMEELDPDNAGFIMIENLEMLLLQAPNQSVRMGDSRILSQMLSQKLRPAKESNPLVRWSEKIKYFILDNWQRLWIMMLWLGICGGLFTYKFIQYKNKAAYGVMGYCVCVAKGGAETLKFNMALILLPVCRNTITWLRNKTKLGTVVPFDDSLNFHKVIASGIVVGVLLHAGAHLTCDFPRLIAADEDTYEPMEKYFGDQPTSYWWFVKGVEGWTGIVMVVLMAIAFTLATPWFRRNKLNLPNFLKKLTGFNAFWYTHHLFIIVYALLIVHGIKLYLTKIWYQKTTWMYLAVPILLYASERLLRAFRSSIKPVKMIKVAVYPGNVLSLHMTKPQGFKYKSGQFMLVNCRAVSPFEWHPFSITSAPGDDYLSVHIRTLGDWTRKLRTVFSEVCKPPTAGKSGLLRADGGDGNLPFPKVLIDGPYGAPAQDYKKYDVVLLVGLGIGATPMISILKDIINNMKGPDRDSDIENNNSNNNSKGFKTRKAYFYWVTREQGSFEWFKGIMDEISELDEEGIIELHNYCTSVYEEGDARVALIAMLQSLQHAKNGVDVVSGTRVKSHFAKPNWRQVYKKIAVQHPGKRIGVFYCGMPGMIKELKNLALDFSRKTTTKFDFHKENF

T1: CPK28-YFP (calcium-dependent protein kinase CPK28 C-terminally tagged with yellow fluorescent protein) (Arabidopsis thaliana) (UniProt Q9FKW4)
T1 sequence: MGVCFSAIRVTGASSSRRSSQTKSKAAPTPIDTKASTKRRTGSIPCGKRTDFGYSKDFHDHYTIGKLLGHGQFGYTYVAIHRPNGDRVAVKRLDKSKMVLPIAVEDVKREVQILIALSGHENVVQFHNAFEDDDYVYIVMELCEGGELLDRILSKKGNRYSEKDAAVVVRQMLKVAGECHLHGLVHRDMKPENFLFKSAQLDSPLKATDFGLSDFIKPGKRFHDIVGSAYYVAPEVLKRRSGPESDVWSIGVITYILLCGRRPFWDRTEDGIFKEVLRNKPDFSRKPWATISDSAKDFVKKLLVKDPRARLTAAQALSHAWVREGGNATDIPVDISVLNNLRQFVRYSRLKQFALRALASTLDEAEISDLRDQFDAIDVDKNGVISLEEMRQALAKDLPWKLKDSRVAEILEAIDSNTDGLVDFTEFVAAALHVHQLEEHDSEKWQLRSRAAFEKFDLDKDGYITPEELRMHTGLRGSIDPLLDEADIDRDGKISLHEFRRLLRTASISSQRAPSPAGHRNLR


Target: T1, CPK28-YFP (calcium-dependent protein kinase CPK28 C-terminally tagged with yellow fluorescent protein) (Arabidopsis thaliana)
Experiment: affinity purification with mass spectrometry

Molecule	binding
MAZZA (MAZ/CARK5) (enzyme)	binds
MIXED LINEAGE KINASE/RAF-RELATED KINASE 1 (MRK1), endogenous (enzyme)	binds
NADPH oxidase RESPIRATORY OXIDASE HOMOLOG D (RBOHD) (from UniProt Q9FIJ0 1-921) (enzyme)	binds
PROLINE-RICH EXTENSIN-LIKE KINASE 1 (PERK1) (enzyme, UniProt Q9LV48 1-652) MSTAPSPGTTPSPSPPSPPTNSTTTTPPPAASSPPPTTTPSSPPPSPSTNSTSPPPSSPLPPSLPPPSPPGSLTPPLPQPSPSAPITPSPPSPTTPSNPRSPPSPNQGPPNTPSGSTPRTPSNTKPSPPSDSSDGLSTGVVVGIAIGGVAILVILTLICLLCKKKRRRRHDDEAAYYVPPPPPSGPKAGGPYGGQQQYWQQQNASRPSDNHVVTSLPPPKPPSPPRKPPPPPPPPAFMSSSGGSDYSDLPVLPPPSPGLVLGFSKSTFTYEELSRATNGFSEANLLGQGGFGYVHKGILPSGKEVAVKQLKAGSGQGEREFQAEVEIISRVHHRHLVSLIGYCMAGVQRLLVYEFVPNNNLEFHLHGKGRPTMEWSTRLKIALGSAKGLSYLHEDCNPKIIHRDIKASNILIDFKFEAKVADFGLAKIASDTNTHVSTRVMGTFGYLAPEYAASGKLTEKSDVFSFGVVLLELITGRRPVDANNVYVDDSLVDWARPLLNRASEEGDFEGLADSKMGNEYDREEMARMVACAAACVRHSARRRPRMSQIVRALEGNVSLSDLNEGMRPGHSNVYSSYGGSTDYDTSQYNDDMIKFRKMALGTQEYGTTGEYSNPTSDYGLYPSGSSSEGQATREMEMGKIKKTGQGYSGPSL	binds
WAK2 (receptor, UniProt Q9LMP1 24-732) QPRKECQTRCGNVAVEYPFGTSPGCYYPGDESFNLTCNEQEKLFFGNMPVINMSLSGQLRVRLVRSRVCYDSQGKQTDYIAQRTTLGNFTLSELNRFTVVGCNSYAFLRTSGVEKYSTGCISICDSATTKNGSCSGEGCCQIPVPRGYSFVRVKPHSFHNHPTVHLFNPCTYAFLVEDGMFDFHALEDLNNLRNVTTFPVVLDWSIGDKTCKQVEYRGVCGGNSTCFDSTGGTGYNCKCLEGFEGNPYLPNGCQDINECISSRHNCSEHSTCENTKGSFNCNCPSGYRKDSLNSCTRKVRPEYFRWTQIFLGTTIGFSVIMLGISCLQQKIKHRKNTELRQKFFEQNGGGMLIQRVSGAGPSNVDVKIFTEKGMKEATNGYHESRILGQGGQGTVYKGILPDNSIVAIKKARLGNRSQVEQFINEVLVLSQINHRNVVKVLGCCLETEVPLLVYEFINSGTLFDHLHGSLYDSSLTWEHRLRIATEVAGSLAYLHSSASIPIIHRDIKTANILLDKNLTAKVADFGASRLIPMDKEQLTTIVQGTLGYLDPEYYNTGLLNEKSDVYSFGVVLMELLSGQKALCFERPHCPKNLVSCFASATKNNRFHEIIDGQVMNEDNQREIQEAARIAAECTRLMGEERPRMKEVAAELEALRVKTTKYKWSDQYRETGEIEHLLGVQILSAQGETSSSIGYDSIRNVTTLDIEAGR	binds

Now from value to molecule:

binding	Molecule
binds	BRASSINOSTEROID … KINASE 1 (BSK1) (from UniProt Q944A7 1-512) (enzyme)
binds	HERCULES RECEPTOR KINASE 4 (HERK4)
binds	MEDOS 1 (MDS1) (receptor)
binds	NEMATODE-INDUCED LRR-RLK 2 (NILR2) (from UniProt F4HRH4) (receptor)
binds	calmodulin
binds	CYTOSOLIC ABA RECEPTOR KINASE 7 (CARK7) (enzyme, UniProt Q8H1G6 1-361) MRKWICCTCQIEDSNEEQQLKSSQQQSDANHKNSKPAPVAKHEVKKEALPIEVPPLSLDEVKEKTENFGSKALIGEGSYGRVYYATLNDGVAVALKKLDVAPEAETDTEFLSQVSMVSRLKHENLIQLLGFCVDGNLRVLAYEFATMGSLHDILHGRKGVQGAQPGPTLDWITRVKIAVEAARGLEYLHEKSQPPVIHRDIRSSNVLLFEDYKAKIADFNLSNQAPDNAARLHSTRVLGTFGYHAPEYAMTGQLTQKSDVYSFGVVLLELLTGRKPVDHTMPRGQQSLVTWATPRLSEDKVKQCIDPKLKADYPPKAVAKLAAVAALCVQYEAEFRPNMSIVVKALQPLLKPPAAAPAPES
